Among the data in ChEMBL document CHEMBL4513155, “CO-ADD screening of University of Sydney (Australia) compounds” (2021) are Inhibition values, retold here.

Each structure is given as a SMILES string. The list shows a part of the results. Measured potencies and affinities stand elsewhere.

This test has as its system Acinetobacter baumannii. The conditions noted are these: Concentration 32 ug.mL-1; ASSAY_TEST Inhibition of Bacterial Growth; detection method Absorption (OD600); MEDIA CAMHB; plate type 384well; NBS; CORNING #3640; time 18 hr.
With `CCN1C(=O)c2cccc3c(-c4cn(CCN5CCCNCCN(CCn6cc([C@]7(O)CC[C@H]8[C@@H]9CCc%10cc(O)ccc%10[C@H]9CC[C@@]87C)nn6)CCCNCC5)nn4)ccc(c23)C1=O.OCCN1CCN(CCCN2c3ccccc3Sc3ccc(Cl)cc32)CC1.[O-][Cl+3]([O-])([O-])[O-].[O-][Cl+3]([O-])([O-])[O-].[Zn+2]`, the Inhibition is on record as -1.2%. On to `CN(C)C(COc1cncc2nnc(-c3ccc(C#N)cc3)n12)c1ccc(F)c(F)c1` (configuration not stated), for which the Inhibition is reported as 1.96%. On to `O.O=C1c2cccc3c(-n4cc(CN5CCCNCCN(Cc6cn(-c7ccc8c9c(cccc79)C(=O)N(CCCO)C8=O)nn6)CCCNCC5)nn4)ccc(c23)C(=O)N1CCCO.[Cl-].[Cl-].[Zn+2]`, for which the Inhibition worked out at 9.8%. The result for `Fc1ccc(CCOc2cncc3nnc(-c4ccc(C(F)(F)F)nc4)n23)cc1F` reads 0%. As for `COC(COc1cncc2nnc(-c3ccc(C#N)cc3)n12)c1ccc(F)c(F)c1` (configuration not stated), the Inhibition was -2.77%.

As for `Fc1ccc(CCOc2cncc3nnc(-c4ccc(Cl)cc4)n23)cc1F`, the Inhibition is -3.21%. `N#Cc1ccc(-c2nnc3cncc(OCC(O)c4ccc(F)c(F)c4)n23)cc1` (configuration not stated): the Inhibition is listed as -3.62%.

A word on the Inhibition: it is the change of the read-out against control, counted positive when it falls.
